Test results: PMC9192689
Results are given in words; binding and its absence hold for the method and conditions named. Binding seen in cells or lysates may run through a third protein. Binding can be weak; no strength is given.

Amino acid sequences for entries named in this document (tags omitted).
UniProt P37198: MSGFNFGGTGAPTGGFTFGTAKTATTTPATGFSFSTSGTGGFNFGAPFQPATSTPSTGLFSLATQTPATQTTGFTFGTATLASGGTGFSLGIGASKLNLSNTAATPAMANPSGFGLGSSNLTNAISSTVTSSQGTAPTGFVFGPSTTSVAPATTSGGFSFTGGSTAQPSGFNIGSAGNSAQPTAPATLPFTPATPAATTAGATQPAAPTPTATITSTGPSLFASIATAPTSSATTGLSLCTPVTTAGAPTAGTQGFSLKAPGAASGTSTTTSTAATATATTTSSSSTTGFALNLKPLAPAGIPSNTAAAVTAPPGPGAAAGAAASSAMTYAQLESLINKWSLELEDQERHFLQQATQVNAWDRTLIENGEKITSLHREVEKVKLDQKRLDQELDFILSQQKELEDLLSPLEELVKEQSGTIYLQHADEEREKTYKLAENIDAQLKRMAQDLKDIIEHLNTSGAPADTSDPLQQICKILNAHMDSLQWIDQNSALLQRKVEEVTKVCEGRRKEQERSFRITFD

Target: eGFP-TDP-43 (ΔNLS) (UniProt Q13148)
Assay: co-IP; HEK293 cells co-transfected with mRuby-NUP62 and eGFP-TDP-43 (WT or ΔNLS) for 24 h; lysate incubated with GFP-Trap Magnetic Agarose beads 3 h at 4 °C; washed three times in 10 mM Tris/Cl pH 7.5, 150 mM NaCl, 0.5 mM EDTA; immunoblot for NUP62 and TDP-43

binding: binds
Substance: mRuby-NUP62 (from UniProt P37198 1-522)
